# Assay results taken from PubChem BioAssay AID445 (National Center for Advancing Translational Sciences (NCATS), 2006).
# This is one part of the list. These are further read-outs of the screen, such as a control signal, another cell line or another target. No call is given for them. Compounds called inactive in the main read-out are mostly missing here. Potencies come from curve fits of mixed quality, noted in brackets.
# Assay: IkB Signaling
# Conditions: ABC-DLBCL IkBa-CBG/CBR dual luciferase ratio (green luciferase fused to IkBa over red control in OCI-Ly3 lymphoma cells), 4 h
# In short: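 In this assay, an IκBα–CBG68 fusion accumulates when IKK-driven degradation is blocked; native CBR normalizes for cell number. OCI-Ly3 cells were treated 4 h with compound and doxycycline, then green and red light read after Chroma-Glo addition.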
# [1] = measured here: control luc red channel unless noted
smiles,measurement,setting,value
COc1cccc(NC(=O)CC2Nc3cc(C)c(C)cc3NC2=O)c1 (stereo not drawn),AC50,[1],"12.6 µM [falling, partial curve]"
CCc1nn2cc(-c3ccccc3)nc2s1,AC50,[1],"7.94 µM [falling, partial curve]"
CCn1c2ccccc2c2nnc(SCCCn3c(=O)[nH]c4ccccc43)nc21,AC50,[1],"2.51 µM [falling, full curve]"
CCc1ccc(S(=O)(=O)Nc2cccc(-c3ccc(N4CCOCC4)nn3)c2)cc1,AC50,[1],"31.6 µM [falling, single point]"
CCOc1ccc(NS(=O)(=O)c2ccc3c4c(cccc24)C(=O)N3)cc1,AC50,[1],"25.1 µM [falling, partial curve]"
O=C(Nc1cccc(F)c1)c1ccc2c(c1)N(Cc1ccccc1)C(=O)c1ccccc1S2(=O)=O,AC50,[1],"15.8 µM [falling, partial curve]"
COc1ccc(C(=O)NCC(c2ccc(N(C)C)cc2)N2CCc3ccccc32)cc1OC (stereo not drawn),AC50,[1],"31.6 µM [falling, single point]"
COC(=O)c1ccccc1NC(=O)C1CCN(C(=O)N2CC(C)Oc3ccccc32)CC1 (stereo not drawn),AC50,[1],"2.51 µM [rising, partial curve]"
COc1ccc(-c2nc3ccccc3s2)cc1NC(=O)c1ccc(F)cc1,AC50,[1],"0.1 µM [rising, full curve, poor fit]"
Cc1ccc(OCC(=O)Nc2ccccc2OCc2cc(=O)n3ccccc3n2)cc1C,AC50,[1],"2 µM [falling, partial curve]"
CCC1Oc2ccc(Cl)cc2N(CC(=O)NCCc2ccc(Cl)cc2)C1=O (stereo not drawn),AC50,[1],"2.51 µM [falling, partial curve]"
COCCNc1nc(NCc2cccc(Cl)c2)c2cnn(C)c2n1,AC50,[1],"20 µM [falling, single point]"
CCCCCCCCCCCCCCCC[n+]1ccccc1,AC50,[1],"15.8 µM [falling, full curve, poor fit]"
N#C/C(=C\Nc1ccc2c(c1)OCCO2)c1nc2ccccc2[nH]1,AC50,[1],"12.6 µM [falling, partial curve]"
O=[N+]([O-])c1cc(-c2nc(-c3ccccc3)no2)ccc1NC1CCCCC1,AC50,[1],"25.1 µM [falling, partial curve]"
C=Cc1ccc(Cn2c(C)c(CNCc3ccccc3C)c(C(=O)O)c2C)cc1,AC50,[1],"31.6 µM [falling, partial curve]"
O=C(NC1CCCCCC1)c1cc(S(=O)(=O)N2CCOCC2)ccc1N1CCCCC1,AC50,[1],"25.1 µM [falling, partial curve]"
COc1ccc(C2c3cc(OC)c(OC)cc3CC(=O)N2c2ccc(C)c(F)c2)cc1 (stereo not drawn),AC50,[1],"20 µM [falling, partial curve]"
COc1ccc(CCNC(=O)c2c(C)oc3ncn(C)c(=O)c23)c(OC)c1,AC50,[1],"1 µM [rising, partial curve]"
CC(=O)Nc1ccc(N(C(=O)Cn2nnc3ccccc32)C(C(=O)NCc2ccccc2)c2ccc(C)cc2)cc1 (stereo not drawn),AC50,[1],"10 µM [falling, partial curve]"
CCc1c(C)nc2[nH]nc(-c3ccccc3)n2c1=O,AC50,[1],"5.01 µM [falling, partial curve]"
CCOC(=O)C(Cc1c[nH]c2ccccc12)NC(=O)COc1ccc(CC)cc1 (stereo not drawn),AC50,[1],"31.6 µM [falling, single point]"
Cc1cccc(S(=O)(=O)c2c(N)n(Cc3ccco3)c3nc4ccccc4nc23)c1,AC50,[1],"15.8 µM [falling, partial curve]"
COc1ccc(C)cc1N(C)C(=O)CCc1nc(-c2ccccc2F)no1,AC50,[1],"6.31 µM [falling, single point]"
CN(C)c1ccc(Nc2ncnc3sc4c(c23)CCCC4)cc1,AC50,[1],"6.31 µM [rising, single point]"
Cc1nnsc1NC(=O)OCC(C)C,AC50,[1],"6.31 µM [falling, partial curve]"
COc1ccc(C)cc1NC(=O)Nc1cccc(-c2noc(C)n2)c1,AC50,[1],"39.8 µM [falling, single point]"
COc1ccccc1CCNC(=O)C(C)Sc1nc(-c2ccccc2)cc(C(F)(F)F)n1 (stereo not drawn),AC50,[1],"20 µM [falling, single point]"
Cc1ccc(C)c(N2CCN(C(=O)CCCOc3cc(=O)n(C)c4ccccc34)CC2)c1,AC50,[1],"15.8 µM [falling, partial curve]"
CCCOc1ccc(CNC(=O)c2[nH]c3cc(OC)ccc3c2Sc2ccccc2)cc1,AC50,[1],"12.6 µM [falling, partial curve]"
Cc1ccc(/C=C/C(=O)Nc2ccccc2C(N)=O)o1,AC50,[1],"10 µM [falling, partial curve]"
CCCCOc1ccc(S(=O)(=O)n2c(C)nc3ccccc32)cc1,AC50,[1],"12.6 µM [falling, partial curve]"
COc1ccccc1NC(=O)COc1ccc(-c2nn(C)c(=O)c3ccccc23)cc1,AC50,[1],"20 µM [falling, partial curve]"
Cc1ccc2oc(=O)n(Cc3ccccc3OC(C)C)c2c1,AC50,[1],"39.8 µM [falling, single point]"
COc1cc(OC)cc(-c2nc3n(n2)C(c2ccccc2)C(C(N)=O)=C(C)N3)c1 (stereo not drawn),AC50,[1],"39.8 µM [falling, single point]"
Cc1sc(-c2cc3c([nH]c2=O)CC(c2ccccc2)CC3=O)nc1-c1ccc(Cl)cc1 (stereo not drawn),AC50,measured here: IkB-luc green channel,"3.98 µM [rising, full curve, poor fit]"
same,AC50,measured here: control luc red channel,"0.126 µM [rising, full curve, poor fit]"
Cc1c(C(=O)N2CCOCC2)oc2c1-c1nn(CC(=O)NCc3cccc(Cl)c3)cc1CC2,AC50,[1],"15.8 µM [falling, single point]"
CCCCS(=O)(=O)c1oc(-c2ccc(F)cc2)nc1S(=O)(=O)c1ccc(C)cc1,AC50,[1],"3.98 µM [falling, full curve]"
O=C(NCc1cccc(F)c1)c1ccc(NC(=O)c2nsc3ccccc23)cc1,AC50,[1],"0.316 µM [falling, full curve]"
CC(C)(C)OC(=O)N1CCC(c2c(C(=O)NCCc3ccccc3)cnn2-c2ccc(F)cc2F)CC1,AC50,[1],"20 µM [falling, partial curve]"
Cn1c(=O)oc2cc(S(=O)(=O)N3CCC(C(=O)N4CCN(c5ccccc5F)CC4)CC3)ccc21,AC50,[1],"20 µM [falling, single point]"
COc1cccc(N2CCN(S(=O)(=O)c3cc(-c4cc(C)no4)ccc3C)CC2)c1,AC50,[1],"3.16 µM [falling, full curve]"
O=c1c2cn[nH]c2nc(SCc2c(F)cccc2F)n1-c1ccc(Cl)cc1,AC50,[1],"39.8 µM [falling, partial curve]"
CCCCN(CC)CCCNC(=O)Cn1ncc2c([nH]c3ccc(C)cc32)c1=O,AC50,[1],"39.8 µM [falling, single point]"
O=C(c1ccco1)N1CCN(C(=O)C(Sc2ccccc2)c2ccccc2)CC1 (stereo not drawn),AC50,[1],"25.1 µM [falling, partial curve]"
COc1ccc(N(CC(=O)N2CCN(c3ccc(F)cc3)CC2)S(=O)(=O)c2c(C)noc2C)cc1,AC50,[1],"10 µM [falling, partial curve]"
O=C(NCc1ccco1)c1ccc2c(c1)N(Cc1ccc(F)cc1)C(=O)c1ccccc1S2(=O)=O,AC50,[1],"15.8 µM [falling, single point]"
CC(C)(C)c1cc(C(F)(F)F)nc(SCCCNC(=O)c2ccco2)n1,AC50,[1],"31.6 µM [falling, single point]"
Cc1cc(-c2ccccc2)nc(N2CCN(c3ccccn3)CC2)n1,AC50,[1],"31.6 µM [falling, partial curve]"
Cc1cc(C)cc(OCC(=O)N2CCC(c3nc4ccccc4s3)CC2)c1,AC50,[1],"6.31 µM [falling, partial curve]"
CCCN1C(=O)C(Cc2nc3ccccc3c(=O)n2-c2ccc(OC)cc2)c2cc(C)ccc21 (stereo not drawn),AC50,[1],"39.8 µM [falling, single point]"
NC(=O)CSc1nc2ccc(NC(=O)COc3ccccc3Cl)cc2s1,AC50,[1],"0.501 µM [falling, full curve]"
Cc1cccc(-n2nc(C)c(C(=O)N3CCN(c4ccccc4)CC3)c2-n2cccc2)c1,AC50,[1],"25.1 µM [falling, partial curve]"
Cc1ccc(C)c(N2CCN(C(=O)C(CC(C)C)NS(=O)(=O)c3ccc4nc(C)sc4c3)CC2)c1 (stereo not drawn),AC50,[1],"15.8 µM [falling, partial curve]"
CCOc1ccc(-c2cc(C(=O)NCCc3ccc(OC)c(OC)c3)c3c(-c4ccc(F)cc4)[nH]nc3n2)cc1,AC50,[1],"2.51 µM [rising, partial curve]"
CCOC(=O)c1cnc2c(C)cccc2c1Nc1ccc(OC(C)C)cc1,AC50,[1],"3.98 µM [falling, partial curve]"
Cc1cccc(OCCCn2c(CCNC(=O)C3CCCCC3)nc3ccccc32)c1,AC50,[1],"15.8 µM [falling, partial curve]"
COc1ccccc1CN(Cc1c(Cl)cccc1Cl)S(=O)(=O)c1ccc(Br)cc1,AC50,[1],"12.6 µM [falling, partial curve]"
CSc1ccc(CCNC(=O)c2cc3cc4cc(C)ccc4nc3s2)cc1,AC50,[1],"31.6 µM [rising, partial curve, poor fit]"
CCN1C=C(Cc2cccs2)C2=C(C1)C(c1cccs1)C(C#N)=C(N)O2 (stereo not drawn),AC50,[1],"10 µM [falling, partial curve]"
COC(=O)c1sccc1S(=O)(=O)N(CC(=O)Nc1ccccc1)c1ccccc1,AC50,[1],"15.8 µM [falling, partial curve]"

# Laid out differently: entries from further up.
smiles | measurement | setting | value
Cn1c(=O)oc2cc(S(=O)(=O)N3CCC(C(=O)N4CCN(c5ccccc5F)CC4)CC3)ccc21 | AC50 | [1] | 20 µM [falling, single point]
COc1cccc(N2CCN(S(=O)(=O)c3cc(-c4cc(C)no4)ccc3C)CC2)c1 | AC50 | [1] | 3.16 µM [falling, full curve]
O=c1c2cn[nH]c2nc(SCc2c(F)cccc2F)n1-c1ccc(Cl)cc1 | AC50 | [1] | 39.8 µM [falling, partial curve]
